Source: PubChem BioAssay AID1259254 (NCATS, 2017)
In all, the deposit lists about 59,000 reagents; this is a part drawn at random. In the full data, about 1,550 (2.6%) are marked active. 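G2 share is only a proxy for re-replication; each gene was hit by three separate siRNAs, and active genes were retested.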 The numbers tell different reagents against one gene apart. Further read-outs or replicates are left out here. Reagent sequences are not shown. The record does not give: the amount of reagent.

Assay: 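Finding genes that stop cells copying their DNA twice in one cycle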 (primary screen)
Cells: human HCT116 colorectal cancer cells
Reagent: single siRNA against human genes
Time to read-out: 3 days
Measurement: 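Imaged Hoechst DNA stain sorts each cell into a cycle phase by DNA amount; per plate, G2 fraction set to 0% for non-targeting and 100% for GMNN siRNA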
Direction: G2 robust z-score and G2 cells, % of GMNN control: higher = more G2 cells, more excess DNA replication
Call rule: 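An siRNA counts as active if its G2 robust z-score lies at least 5 MADs above the screen median; here such calls match roughly 38% of GMNN control or more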

For MYNN #1, how do the results read?
G2 robust z-score: -0.343; G2 cells, % of GMNN control: 0.558; call: inactive

How did the screen score MYNN #2?
G2 robust z-score: 0.259; G2 cells, % of GMNN control: 4.79; call: inactive

How did the screen score MYNN #3?
G2 robust z-score: -0.219; G2 cells, % of GMNN control: 1.43; call: inactive

With MOSMO #1, what was measured?
G2 robust z-score: -0.683; G2 cells, % of GMNN control: -1.84; call: inactive

How did the screen score MOSMO #2?
G2 robust z-score: -0.449; G2 cells, % of GMNN control: -0.19; call: inactive

What did the screen give for MOSMO #3?
G2 robust z-score: 0.361; G2 cells, % of GMNN control: 5.51; call: inactive

For LINC00469 #1, what was measured?
G2 robust z-score: 0.712; G2 cells, % of GMNN control: 7.98; call: inactive

What did the screen give for LINC00469 #2?
G2 robust z-score: -0.74; G2 cells, % of GMNN control: -2.24; call: inactive

How did the screen score LINC00469 #3?
G2 robust z-score: 0.628; G2 cells, % of GMNN control: 7.39; call: inactive

How did the screen score ZNF649 #1?
G2 robust z-score: -0.214; G2 cells, % of GMNN control: 1.46; call: inactive

What is on record for ZNF649 #2?
G2 robust z-score: -1.08; G2 cells, % of GMNN control: -4.61; call: inactive

For ZNF649 #3, what was measured?
G2 robust z-score: 0.552; G2 cells, % of GMNN control: 6.85; call: inactive

What did the screen give for CSF2 #1?
G2 robust z-score: 3.7; G2 cells, % of GMNN control: 29; call: inactive

Which result is listed for CSF2 #2?
G2 robust z-score: -0.56; G2 cells, % of GMNN control: -0.974; call: inactive

With CSF2 #3, what does the deposit list?
G2 robust z-score: -0.402; G2 cells, % of GMNN control: 0.142; call: inactive

For BCL10 #1, what was measured?
G2 robust z-score: 0.186; G2 cells, % of GMNN control: 4.27; call: inactive

Which result is listed for BCL10 #2?
G2 robust z-score: 0.298; G2 cells, % of GMNN control: 5.06; call: inactive

For BCL10 #3, what does the deposit list?
G2 robust z-score: 1.57; G2 cells, % of GMNN control: 14; call: inactive

For CNN1 #1, what does the deposit list?
G2 robust z-score: 0.156; G2 cells, % of GMNN control: 4.06; call: inactive

What is on record for CNN1 #2?
G2 robust z-score: 4.27; G2 cells, % of GMNN control: 33; call: inactive

For CNN1 #3, what does the deposit list?
G2 robust z-score: -0.383; G2 cells, % of GMNN control: 0.274; call: inactive

How did the screen score XKR5 #1?
G2 robust z-score: -0.855; G2 cells, % of GMNN control: -3.05; call: inactive

How did the screen score XKR5 #2?
G2 robust z-score: 0.106; G2 cells, % of GMNN control: 3.72; call: inactive

What did the screen give for XKR5 #3?
G2 robust z-score: -0.849; G2 cells, % of GMNN control: -3.01; call: inactive

4 neighbouring reagents from above:
MYNN #2 → G2 robust z-score = 0.259; G2 cells, % of GMNN control = 4.79; call = inactive
MYNN #3 → G2 robust z-score = -0.219; G2 cells, % of GMNN control = 1.43; call = inactive
MOSMO #1 → G2 robust z-score = -0.683; G2 cells, % of GMNN control = -1.84; call = inactive
MOSMO #2 → G2 robust z-score = -0.449; G2 cells, % of GMNN control = -0.19; call = inactive
